The other results are listed elsewhere or left out.
Each target was assayed with COc1ccc(Cn2ccc3cc(C)c(C(=O)NO)cc32)cc1 (assay: dose-dependent thermal stabilisation call (2D-TPP, DLPTP, 10% FDR) (binary (1 = stabilised)); higher = stabilised by the compound). Details: system: HL-60 intact cells; concentration range 0.04-10 µM.
Method: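 2D thermal proteome profiling in intact HL-60 cells treated with BRD-3811 (0, 0.04, 0.29, 2, 10 uM) for 90 min at 37 C, then heated 3 min at one of 12 temperatures (42-63.9 C). Soluble protein was quantified by TMT10 MS. The value is the DLPTP call of the paper: dose-dependent thermal stabilisation over all temperatures at 10% FDR (F-test of a dose-response against a flat model); one experiment, one call per tested protein.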

Amino acid sequences for entries named in this document (tags omitted). A change or cut given only in a name is not applied to a line headed by its entry.
UniProt Q6P582, whole entry: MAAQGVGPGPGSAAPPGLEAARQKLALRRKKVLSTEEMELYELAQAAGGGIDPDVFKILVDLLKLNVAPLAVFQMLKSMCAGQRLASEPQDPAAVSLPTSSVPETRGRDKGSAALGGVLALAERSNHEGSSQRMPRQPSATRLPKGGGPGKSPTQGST
UniProt O75530, whole entry, looked up: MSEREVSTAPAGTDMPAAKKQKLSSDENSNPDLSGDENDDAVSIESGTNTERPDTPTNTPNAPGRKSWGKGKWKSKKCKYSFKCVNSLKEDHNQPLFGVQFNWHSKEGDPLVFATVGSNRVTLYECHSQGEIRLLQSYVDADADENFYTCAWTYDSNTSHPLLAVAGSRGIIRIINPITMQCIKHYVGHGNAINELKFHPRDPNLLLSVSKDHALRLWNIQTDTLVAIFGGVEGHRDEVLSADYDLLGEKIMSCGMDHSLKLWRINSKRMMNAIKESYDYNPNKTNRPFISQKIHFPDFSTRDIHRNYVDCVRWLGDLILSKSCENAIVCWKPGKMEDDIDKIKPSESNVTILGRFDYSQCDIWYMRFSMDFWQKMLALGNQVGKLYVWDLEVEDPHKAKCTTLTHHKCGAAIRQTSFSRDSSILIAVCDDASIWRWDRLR
UniProt Q7Z4H7: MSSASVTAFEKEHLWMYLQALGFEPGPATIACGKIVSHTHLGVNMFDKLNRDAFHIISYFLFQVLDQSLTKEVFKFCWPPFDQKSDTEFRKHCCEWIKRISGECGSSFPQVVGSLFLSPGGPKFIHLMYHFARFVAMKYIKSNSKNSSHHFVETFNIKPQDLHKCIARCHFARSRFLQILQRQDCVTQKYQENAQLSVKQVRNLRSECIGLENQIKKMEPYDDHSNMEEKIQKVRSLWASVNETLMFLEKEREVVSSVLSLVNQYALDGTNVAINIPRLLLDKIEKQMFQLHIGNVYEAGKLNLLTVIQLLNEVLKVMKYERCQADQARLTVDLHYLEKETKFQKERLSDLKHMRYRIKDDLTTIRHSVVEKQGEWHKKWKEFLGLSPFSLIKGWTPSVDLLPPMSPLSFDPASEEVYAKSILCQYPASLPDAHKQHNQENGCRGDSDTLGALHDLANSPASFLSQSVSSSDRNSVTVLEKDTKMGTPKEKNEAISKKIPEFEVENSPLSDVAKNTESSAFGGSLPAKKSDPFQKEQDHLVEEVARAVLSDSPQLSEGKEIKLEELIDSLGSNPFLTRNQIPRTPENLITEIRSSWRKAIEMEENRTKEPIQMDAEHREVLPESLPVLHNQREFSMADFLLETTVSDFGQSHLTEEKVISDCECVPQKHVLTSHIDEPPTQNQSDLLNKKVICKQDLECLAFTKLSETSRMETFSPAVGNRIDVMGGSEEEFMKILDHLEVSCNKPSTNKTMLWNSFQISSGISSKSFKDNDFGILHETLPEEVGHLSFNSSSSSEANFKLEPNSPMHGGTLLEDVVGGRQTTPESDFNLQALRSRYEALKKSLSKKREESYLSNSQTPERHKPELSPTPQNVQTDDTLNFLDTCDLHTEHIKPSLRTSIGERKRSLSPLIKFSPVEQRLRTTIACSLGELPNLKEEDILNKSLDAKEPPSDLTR
UniProt P60981: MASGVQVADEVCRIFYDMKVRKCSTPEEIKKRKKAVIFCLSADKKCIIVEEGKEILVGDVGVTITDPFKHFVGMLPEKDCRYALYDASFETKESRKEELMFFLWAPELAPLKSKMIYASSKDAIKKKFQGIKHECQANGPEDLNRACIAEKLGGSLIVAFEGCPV
UniProt Q8N5C7: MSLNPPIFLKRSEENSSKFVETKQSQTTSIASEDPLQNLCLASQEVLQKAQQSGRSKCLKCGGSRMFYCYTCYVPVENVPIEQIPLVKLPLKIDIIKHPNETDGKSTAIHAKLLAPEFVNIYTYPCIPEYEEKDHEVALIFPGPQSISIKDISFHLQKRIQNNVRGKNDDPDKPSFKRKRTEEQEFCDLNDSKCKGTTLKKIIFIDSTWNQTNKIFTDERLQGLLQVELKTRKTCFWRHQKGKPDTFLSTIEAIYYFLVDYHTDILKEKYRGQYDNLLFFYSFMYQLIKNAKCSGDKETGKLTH
UniProt O95905: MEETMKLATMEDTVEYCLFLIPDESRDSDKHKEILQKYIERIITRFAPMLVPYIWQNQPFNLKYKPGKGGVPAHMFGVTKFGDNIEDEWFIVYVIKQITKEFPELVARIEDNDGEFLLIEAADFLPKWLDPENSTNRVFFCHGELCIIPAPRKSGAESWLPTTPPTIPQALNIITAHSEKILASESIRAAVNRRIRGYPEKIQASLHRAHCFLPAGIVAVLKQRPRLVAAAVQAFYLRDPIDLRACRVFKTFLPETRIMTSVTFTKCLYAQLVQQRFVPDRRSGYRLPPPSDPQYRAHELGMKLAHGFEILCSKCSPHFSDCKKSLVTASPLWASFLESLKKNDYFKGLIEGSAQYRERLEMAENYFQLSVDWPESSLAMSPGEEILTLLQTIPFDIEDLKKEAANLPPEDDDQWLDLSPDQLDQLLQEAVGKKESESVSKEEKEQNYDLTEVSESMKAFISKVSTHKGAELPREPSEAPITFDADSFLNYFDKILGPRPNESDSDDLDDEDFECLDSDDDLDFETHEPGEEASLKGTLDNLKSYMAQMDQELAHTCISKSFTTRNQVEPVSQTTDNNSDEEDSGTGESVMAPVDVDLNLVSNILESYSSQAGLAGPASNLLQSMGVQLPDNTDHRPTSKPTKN
UniProt Q9BQ95: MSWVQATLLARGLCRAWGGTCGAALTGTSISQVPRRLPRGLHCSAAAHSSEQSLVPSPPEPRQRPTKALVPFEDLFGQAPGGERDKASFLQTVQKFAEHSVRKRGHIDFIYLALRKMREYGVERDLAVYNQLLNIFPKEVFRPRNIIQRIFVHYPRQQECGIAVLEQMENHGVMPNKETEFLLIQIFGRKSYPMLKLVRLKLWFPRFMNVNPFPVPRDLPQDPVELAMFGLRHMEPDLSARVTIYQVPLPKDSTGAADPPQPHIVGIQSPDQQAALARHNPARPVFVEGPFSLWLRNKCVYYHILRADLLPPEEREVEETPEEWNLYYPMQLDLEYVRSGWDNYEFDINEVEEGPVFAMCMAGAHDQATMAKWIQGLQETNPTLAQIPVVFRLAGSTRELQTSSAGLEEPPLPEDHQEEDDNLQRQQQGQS
UniProt Q8NFC6: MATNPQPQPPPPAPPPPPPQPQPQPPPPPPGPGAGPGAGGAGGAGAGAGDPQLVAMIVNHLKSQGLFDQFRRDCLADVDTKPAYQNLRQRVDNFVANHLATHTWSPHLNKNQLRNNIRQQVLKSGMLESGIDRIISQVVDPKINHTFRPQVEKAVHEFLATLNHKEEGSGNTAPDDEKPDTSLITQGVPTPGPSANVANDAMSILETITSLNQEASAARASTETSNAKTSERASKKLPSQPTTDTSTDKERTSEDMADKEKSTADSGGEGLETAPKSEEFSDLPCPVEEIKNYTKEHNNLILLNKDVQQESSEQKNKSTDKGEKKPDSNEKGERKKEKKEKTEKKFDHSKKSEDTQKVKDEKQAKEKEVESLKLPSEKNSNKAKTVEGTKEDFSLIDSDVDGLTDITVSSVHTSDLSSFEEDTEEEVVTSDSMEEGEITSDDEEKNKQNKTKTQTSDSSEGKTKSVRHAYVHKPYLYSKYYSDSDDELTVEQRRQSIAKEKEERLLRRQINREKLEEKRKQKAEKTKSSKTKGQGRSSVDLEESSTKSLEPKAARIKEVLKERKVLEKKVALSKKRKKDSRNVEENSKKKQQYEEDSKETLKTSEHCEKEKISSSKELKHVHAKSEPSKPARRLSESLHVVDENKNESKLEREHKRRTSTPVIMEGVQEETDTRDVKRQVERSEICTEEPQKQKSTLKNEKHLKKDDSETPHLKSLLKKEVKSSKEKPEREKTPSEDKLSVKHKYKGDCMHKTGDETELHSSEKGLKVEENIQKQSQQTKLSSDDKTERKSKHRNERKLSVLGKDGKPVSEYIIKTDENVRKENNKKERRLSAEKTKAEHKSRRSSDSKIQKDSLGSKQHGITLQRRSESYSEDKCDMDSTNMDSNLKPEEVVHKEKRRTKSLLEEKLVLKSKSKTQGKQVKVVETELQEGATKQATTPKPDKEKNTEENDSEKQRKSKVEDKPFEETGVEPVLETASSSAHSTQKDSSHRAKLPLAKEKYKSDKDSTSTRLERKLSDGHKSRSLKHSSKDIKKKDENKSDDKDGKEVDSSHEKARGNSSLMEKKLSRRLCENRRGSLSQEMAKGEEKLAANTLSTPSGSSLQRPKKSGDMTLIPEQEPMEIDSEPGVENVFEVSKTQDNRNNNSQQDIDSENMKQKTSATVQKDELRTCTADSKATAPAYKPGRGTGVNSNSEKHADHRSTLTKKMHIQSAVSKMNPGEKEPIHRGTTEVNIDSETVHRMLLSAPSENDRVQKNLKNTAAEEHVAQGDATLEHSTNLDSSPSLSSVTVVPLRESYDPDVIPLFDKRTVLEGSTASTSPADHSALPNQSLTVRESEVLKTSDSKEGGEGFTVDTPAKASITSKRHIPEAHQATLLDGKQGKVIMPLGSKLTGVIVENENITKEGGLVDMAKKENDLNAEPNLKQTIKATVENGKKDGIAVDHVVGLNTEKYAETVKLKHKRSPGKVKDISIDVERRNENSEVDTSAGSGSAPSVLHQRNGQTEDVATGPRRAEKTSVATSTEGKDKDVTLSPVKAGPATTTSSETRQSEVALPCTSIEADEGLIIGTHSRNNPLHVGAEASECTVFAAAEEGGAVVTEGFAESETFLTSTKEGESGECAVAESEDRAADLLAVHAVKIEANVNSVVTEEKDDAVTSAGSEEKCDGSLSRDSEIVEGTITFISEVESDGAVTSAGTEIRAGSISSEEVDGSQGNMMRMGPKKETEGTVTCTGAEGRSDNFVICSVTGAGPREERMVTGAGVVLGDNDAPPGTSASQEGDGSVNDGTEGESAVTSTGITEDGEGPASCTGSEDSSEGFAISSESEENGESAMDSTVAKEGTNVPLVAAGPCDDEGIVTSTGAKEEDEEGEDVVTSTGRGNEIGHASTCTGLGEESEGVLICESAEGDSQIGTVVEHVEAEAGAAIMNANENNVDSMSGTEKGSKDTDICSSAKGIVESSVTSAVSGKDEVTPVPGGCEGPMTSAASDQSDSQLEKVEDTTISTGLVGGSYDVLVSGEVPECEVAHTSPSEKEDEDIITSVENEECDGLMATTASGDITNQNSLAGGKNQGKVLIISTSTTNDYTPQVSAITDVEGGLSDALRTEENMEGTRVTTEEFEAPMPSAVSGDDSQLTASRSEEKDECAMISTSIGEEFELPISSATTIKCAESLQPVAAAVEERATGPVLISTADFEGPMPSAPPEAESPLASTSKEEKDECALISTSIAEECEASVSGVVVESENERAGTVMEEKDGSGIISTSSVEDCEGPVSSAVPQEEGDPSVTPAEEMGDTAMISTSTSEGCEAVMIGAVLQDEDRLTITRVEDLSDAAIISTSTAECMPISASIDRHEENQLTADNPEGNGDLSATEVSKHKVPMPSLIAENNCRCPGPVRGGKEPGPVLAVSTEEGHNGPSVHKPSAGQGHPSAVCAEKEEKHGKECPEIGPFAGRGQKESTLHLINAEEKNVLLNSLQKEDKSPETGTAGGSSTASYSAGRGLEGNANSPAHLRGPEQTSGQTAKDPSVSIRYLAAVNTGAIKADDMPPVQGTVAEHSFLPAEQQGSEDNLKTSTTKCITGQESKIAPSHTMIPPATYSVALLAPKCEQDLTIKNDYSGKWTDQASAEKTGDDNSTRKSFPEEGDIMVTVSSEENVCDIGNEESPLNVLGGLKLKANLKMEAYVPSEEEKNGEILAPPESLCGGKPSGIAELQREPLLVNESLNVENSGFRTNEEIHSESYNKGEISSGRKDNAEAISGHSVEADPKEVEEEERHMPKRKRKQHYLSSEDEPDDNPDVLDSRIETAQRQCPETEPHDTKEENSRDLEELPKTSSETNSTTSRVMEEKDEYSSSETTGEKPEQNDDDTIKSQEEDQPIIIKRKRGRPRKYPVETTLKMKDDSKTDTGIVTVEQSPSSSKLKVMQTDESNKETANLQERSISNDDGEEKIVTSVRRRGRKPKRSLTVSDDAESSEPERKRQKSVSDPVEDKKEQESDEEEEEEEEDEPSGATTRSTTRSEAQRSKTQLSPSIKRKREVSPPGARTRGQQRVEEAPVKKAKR
UniProt Q9H410: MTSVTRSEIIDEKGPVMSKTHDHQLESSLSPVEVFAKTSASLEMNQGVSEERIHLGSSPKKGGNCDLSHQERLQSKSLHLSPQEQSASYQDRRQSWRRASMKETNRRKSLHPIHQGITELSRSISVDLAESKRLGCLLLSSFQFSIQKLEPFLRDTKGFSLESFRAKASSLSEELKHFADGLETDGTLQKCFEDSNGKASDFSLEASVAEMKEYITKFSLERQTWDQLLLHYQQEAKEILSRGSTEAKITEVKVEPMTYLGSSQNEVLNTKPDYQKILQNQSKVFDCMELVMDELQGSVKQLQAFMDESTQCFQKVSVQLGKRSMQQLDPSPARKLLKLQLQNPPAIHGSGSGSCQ

Target	dose-dependent thermal stabilisation call
FAM20B (UniProt O75063)	inactive: 0
ERAP1 (UniProt Q9NZ08)	inactive: 0
ELMOD2 (UniProt Q8IZ81)	inactive: 0
FAM128A (UniProt Q6P582)	inactive: 0
EED (UniProt O75530)	inactive: 0
EGR1 (UniProt P18146)	inactive: 0
EEFSEC (UniProt P57772)	inactive: 0
FAM158A (UniProt Q9Y3B6)	inactive: 0
EAF1 (UniProt Q96JC9)	inactive: 0
FAM29A (UniProt Q7Z4H7)	inactive: 0
ENG (UniProt P17813)	inactive: 0
ERCC2 (UniProt P18074)	inactive: 0
DYM (UniProt Q7RTS9)	inactive: 0
EIF3M (UniProt Q7L2H7)	inactive: 0
DSTN (UniProt P60981)	inactive: 0
EEF2 (UniProt P13639)	inactive: 0
DTWD1 (UniProt Q8N5C7)	inactive: 0
FAM133B (UniProt Q5BKY9)	inactive: 0
ENDOD1 (UniProt O94919)	inactive: 0
ERH (UniProt P84090)	inactive: 0

A second format for some results above.
Target | dose-dependent thermal stabilisation call
EED (UniProt O75530) | inactive: 0
EGR1 (UniProt P18146) | inactive: 0
EEFSEC (UniProt P57772) | inactive: 0
EAF1 (UniProt Q96JC9) | inactive: 0
EIF3M (UniProt Q7L2H7) | inactive: 0
DSTN (UniProt P60981) | inactive: 0
EEF2 (UniProt P13639) | inactive: 0
FAM133B (UniProt Q5BKY9) | inactive: 0

The list continues.

Target	dose-dependent thermal stabilisation call
ECD (UniProt O95905)	inactive: 0
ERF (UniProt P50548)	inactive: 0
EPM2AIP1 (UniProt Q7L775)	inactive: 0
ECHDC1 (UniProt Q9NTX5)	inactive: 0
ELP4 (UniProt Q96EB1)	inactive: 0
FABP5 (UniProt Q01469)	inactive: 0
ECSIT (UniProt Q9BQ95)	inactive: 0
FAM127A	inactive: 0
EHBP1 (UniProt Q8NDI1)	inactive: 0
FAM44A (UniProt Q8NFC6)	inactive: 0
FAF1 (UniProt Q9UNN5)	inactive: 0
EVI2B (UniProt P34910)	inactive: 0
FAM105B (UniProt Q96BN8)	inactive: 0
DTX3L (UniProt Q8TDB6)	inactive: 0
DSN1 (UniProt Q9H410)	inactive: 0
FAM119A (UniProt Q8WXB1)	inactive: 0
ETV6 (UniProt P41212)	inactive: 0
FAM116A (UniProt Q8IWF6)	inactive: 0
EFNB2 (UniProt P52799)	inactive: 0
DUSP3 (UniProt P51452)	inactive: 0
